These are yes or no findings as the source states them, for the method shown. Binding seen in cells or lysates may run through a third protein. Some results given as binding are weak or reduced against the parent protein; the word gives no strength. For some of these results: Tags and fused reporters may be left off the sequences shown.

Amino acid sequences for entries named in this document (tags omitted).
UniProt P11940: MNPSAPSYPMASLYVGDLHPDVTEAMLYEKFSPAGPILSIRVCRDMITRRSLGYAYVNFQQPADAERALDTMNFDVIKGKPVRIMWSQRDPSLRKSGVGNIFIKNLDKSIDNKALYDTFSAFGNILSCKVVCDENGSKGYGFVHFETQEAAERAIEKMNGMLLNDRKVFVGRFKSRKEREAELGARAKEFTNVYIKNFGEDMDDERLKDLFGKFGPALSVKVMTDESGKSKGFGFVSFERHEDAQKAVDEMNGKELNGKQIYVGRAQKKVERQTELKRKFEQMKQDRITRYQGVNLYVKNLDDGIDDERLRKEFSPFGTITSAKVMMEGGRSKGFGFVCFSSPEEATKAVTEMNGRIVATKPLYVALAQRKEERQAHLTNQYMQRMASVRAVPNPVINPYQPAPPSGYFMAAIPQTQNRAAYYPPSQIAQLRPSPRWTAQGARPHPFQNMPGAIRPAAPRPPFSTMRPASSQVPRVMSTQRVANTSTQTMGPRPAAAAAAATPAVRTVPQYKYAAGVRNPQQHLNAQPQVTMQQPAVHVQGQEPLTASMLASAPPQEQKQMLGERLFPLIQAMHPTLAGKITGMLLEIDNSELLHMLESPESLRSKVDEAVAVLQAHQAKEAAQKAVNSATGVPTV
UniProt Q9NZI8: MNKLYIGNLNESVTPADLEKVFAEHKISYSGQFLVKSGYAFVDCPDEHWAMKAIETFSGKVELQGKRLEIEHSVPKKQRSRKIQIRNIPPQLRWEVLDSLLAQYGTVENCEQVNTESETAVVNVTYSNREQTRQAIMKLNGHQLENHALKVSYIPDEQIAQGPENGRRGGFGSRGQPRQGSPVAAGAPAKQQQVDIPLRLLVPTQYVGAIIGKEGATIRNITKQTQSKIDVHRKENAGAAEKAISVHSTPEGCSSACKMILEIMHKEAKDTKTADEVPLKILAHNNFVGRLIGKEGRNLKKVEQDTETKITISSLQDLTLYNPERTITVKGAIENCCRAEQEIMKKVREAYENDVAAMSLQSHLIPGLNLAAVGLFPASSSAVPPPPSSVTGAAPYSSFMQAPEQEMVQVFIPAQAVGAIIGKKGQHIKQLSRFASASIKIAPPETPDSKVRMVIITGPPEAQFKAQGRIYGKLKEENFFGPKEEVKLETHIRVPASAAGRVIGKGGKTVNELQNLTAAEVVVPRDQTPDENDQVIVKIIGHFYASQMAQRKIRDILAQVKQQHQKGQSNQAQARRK
UniProt Q15717: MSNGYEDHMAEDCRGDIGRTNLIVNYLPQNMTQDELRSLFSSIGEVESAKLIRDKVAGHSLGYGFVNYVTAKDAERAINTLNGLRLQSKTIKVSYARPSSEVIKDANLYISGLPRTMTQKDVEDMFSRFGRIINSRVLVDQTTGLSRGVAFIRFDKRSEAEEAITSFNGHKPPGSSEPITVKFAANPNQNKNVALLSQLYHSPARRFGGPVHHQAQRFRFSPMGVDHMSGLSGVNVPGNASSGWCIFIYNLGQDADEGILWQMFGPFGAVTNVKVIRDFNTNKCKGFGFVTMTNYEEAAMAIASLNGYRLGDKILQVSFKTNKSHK

Data on two molecules can be found in PMC6805484.

Test [1] concerns the target T1, GFP-MKRN1^wt (Makorin Ring Finger Protein 1, wild type, N-terminally GFP-tagged) (human), Q9UHC7.
T1 chain: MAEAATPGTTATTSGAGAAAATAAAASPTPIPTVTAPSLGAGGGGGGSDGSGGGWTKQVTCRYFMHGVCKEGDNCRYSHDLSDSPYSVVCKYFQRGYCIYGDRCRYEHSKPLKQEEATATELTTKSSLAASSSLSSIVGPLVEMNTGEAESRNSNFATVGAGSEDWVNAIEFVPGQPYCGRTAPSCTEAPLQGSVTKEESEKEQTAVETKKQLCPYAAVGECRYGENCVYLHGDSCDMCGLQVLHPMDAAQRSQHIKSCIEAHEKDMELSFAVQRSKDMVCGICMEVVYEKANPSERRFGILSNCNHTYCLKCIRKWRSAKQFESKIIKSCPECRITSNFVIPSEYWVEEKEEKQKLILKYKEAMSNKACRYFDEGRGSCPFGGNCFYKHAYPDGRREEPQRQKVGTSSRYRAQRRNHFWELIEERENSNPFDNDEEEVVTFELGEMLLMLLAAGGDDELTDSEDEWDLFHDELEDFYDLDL
The test is described as follows: co-IP; GFP-trap agarose beads with cleared lysates of HEK293T cells transiently expressing a GFP-tagged bait or GFP (empty vector); mRIPA buffer, 1 h at 4 °C, five washes; Western blot for the endogenous partner. The settings on record: remark: other sources report otherwise.

Test [2] has as its target GFP-tagged PABPC1 (human) (UniProt P11940). The test is described as follows: co-IP; as a2, the enriched proteins incubated with 0.5 U/μl RNase A and 20 U/μl RNase T1 for 30 min at 4 °C after the first two washes.
Test [3] addresses GFP-tagged IGF2BP1 (UniProt Q9NZI8). Described as above.
The target of test [4] is GFP-tagged ELAVL1 (UniProt Q15717). Described as above.
In test [5] the target is GFP-tagged PABPC1 (human) (UniProt P11940). Put plainly: co-IP; GFP-trap agarose beads with cleared lysates of HEK293T cells transiently expressing a GFP-tagged bait or GFP (empty vector); mRIPA buffer, 1 h at 4 °C, five washes; Western blot for the endogenous partner.
The target in test [6] is GFP-tagged IGF2BP1 (UniProt Q9NZI8). The test is described as above.
Test [7] addresses GFP-tagged ELAVL1 (UniProt Q15717). The description is as above.

B1: ZNF598 (endogenous), Q86UK7 1-904 (protein)
chain: MAAAGGAEGRRAALEAAAAAAPERGGGSCVLCCGDLEATALGRCDHPVCYRCSTKMRVLCEQRYCAVCREELRQVVFGKKLPAFATIPIHQLQHEKKYDIYFADGKVYALYRQLLQHECPRCPELPPFSLFGDLEQHMRRQHELFCCRLCLQHLQIFTYERKWYSRKDLARHRMQGDPDDTSHRGHPLCKFCDERYLDNDELLKHLRRDHYFCHFCDSDGAQDYYSDYAYLREHFREKHFLCEEGRCSTEQFTHAFRTEIDLKAHRTACHSRSRAEARQNRHIDLQFSYAPRHSRRNEGVVGGEDYEEVDRYSRQGRVARAGTRGAQQSRRGSWRYKREEEDREVAAAVRASVAAQQQEEARRSEDQEEGGRPKKEEAAARGPEDPRGPRRSPRTQGEGPGPKETSTNGPVSQEAFSVTGPAAPGCVGVPGALPPPSPKLKDEDFPSLSASTSSSCSTAATPGPVGLALPYAIPARGRSAFQEEDFPALVSSVPKPGTAPTSLVSAWNSSSSSKKVAQPPLSAQATGSGQPTRKAGKGSRGGRKGGPPFTQEEEEDGGPALQELLSTRPTGSVSSTLGLASIQPSKVGKKKKVGSEKPGTTLPQPPPATCPPGALQAPEAPASRAEGPVAVVVNGHTEGPAPARSAPKEPPGLPRPLGSFPCPTPQEDFPALGGPCPPRMPPPPGFSAVVLLKGTPPPPPPGLVPPISKPPPGFSGLLPSPHPACVPSPATTTTTKAPRLLPAPRAYLVPENFRERNLQLIQSIRDFLQSDEARFSEFKSHSGEFRQGLISAAQYYKSCRDLLGENFQKVFNELLVLLPDTAKQQELLSAHTDFCNREKPLSTKSKKNKKSAWQATTQQAGLDCRVCPTCQQVLAHGDASSHQALHAARDDDFPSLQAIARIIT
Consider B1, for which the binding result in test [1] is on record as “no binding”.

B2: MKRN1 (endogenous) (protein, UniProt Q9UHC7 1-482)
chain: T1 chain
With B2, the binding entry (in test [2]; with GFP-tagged IGF2BP1 [3]; with GFP-tagged ELAVL1 [4]; in test [5]; with GFP-tagged IGF2BP1 [6]; with GFP-tagged ELAVL1 [7]) was “binds” in each case.
